Source: patent US6440696 (NEW ENGLAND MEDICAL CENTER, dated 2002)
No constants are given. Whether binding was seen depends on the method and setting. In cells and extracts the contact can be indirect. Some results given as binding are weak or reduced against the parent protein; the word gives no strength. Tags and fused reporters may be left off the sequences shown.

The chains behind the UniProt entries cited, without tags or fusion partners. Where a name states a change or a piece, a line headed by the entry shows the natural chain unless it says otherwise. Residues count along the entry.
UniProt P03126: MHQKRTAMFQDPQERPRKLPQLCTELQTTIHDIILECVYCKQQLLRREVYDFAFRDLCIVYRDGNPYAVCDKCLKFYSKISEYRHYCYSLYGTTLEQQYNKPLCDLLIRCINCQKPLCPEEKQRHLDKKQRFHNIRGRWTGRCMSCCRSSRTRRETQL
GST-HPV16 E6: residues 8-158 of P03126
UniProt P06463: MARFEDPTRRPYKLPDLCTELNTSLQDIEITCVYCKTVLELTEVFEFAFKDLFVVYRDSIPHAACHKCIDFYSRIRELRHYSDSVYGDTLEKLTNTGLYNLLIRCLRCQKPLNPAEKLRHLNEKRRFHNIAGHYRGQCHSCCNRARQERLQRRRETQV

Assays:
[1] = target: T1, E6TP1-C-194 (myc-tagged C-terminal 194 aa of E6TP1) (human) (UniProt O43166); assay: co-immunoprecipitation from Cos-7 cells: anti-myc 9E10 IP, anti-FLAG Western blot
T1 sequence: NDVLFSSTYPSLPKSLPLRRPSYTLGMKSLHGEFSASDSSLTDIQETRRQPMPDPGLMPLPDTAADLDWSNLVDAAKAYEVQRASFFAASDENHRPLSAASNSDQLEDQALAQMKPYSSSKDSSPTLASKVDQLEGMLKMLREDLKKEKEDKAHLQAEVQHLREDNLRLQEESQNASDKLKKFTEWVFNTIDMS

[2] = target: T1, E6TP1-C-194 (myc-tagged C-terminal 194 aa of E6TP1) (human); assay: co-immunoprecipitation from 293T cells
GST-HPV16 E6 (HPV16) [3] = target: GST-HPV16 E6 (HPV16) (UniProt P03126); assay: pull-down of in vitro translated 35S-labelled protein on GST-HPV16 E6 (FIG. 3B)
HPV18 E6 protein (HPV18) [4] = target: HPV18 E6 protein (HPV18) (UniProt P06463); assay: in vitro GST pull-down
HPV16 E6 protein (HPV16) [5] = target: HPV16 E6 protein (HPV16) (UniProt P03126); assay: in vitro GST pull-down
HPV18 E6 protein (HPV18) [6] = target: HPV18 E6 protein (HPV18) (UniProt P06463); assay: GST pull-down of in vitro translated 35S-labelled E6, SDS-PAGE and fluorography
HPV16 E6 protein (HPV16) [7] = target: HPV16 E6 protein (HPV16) (UniProt P03126); assay: as above
HPV18 E6 protein (HPV18) [8] = target: HPV18 E6 protein (HPV18) (UniProt P06463); assay: GST pull-down of in vitro translated 35S-labelled E6 (FIG. 3A)
HPV16 E6 protein (HPV16) [9] = target: HPV16 E6 protein (HPV16) (UniProt P03126); assay: as above
GST-HPV16 E6 (HPV16) [10] = target: GST-HPV16 E6 (HPV16) (UniProt P03126); assay: pull-down on GST-HPV16 E6 (FIG. 3B)
GST-HPV16 E6 (HPV16) [11] = target: GST-HPV16 E6 (HPV16) (UniProt P03126); assay: in vitro pull-down with truncations of E6TP1α
GST-HPV16 E6 (HPV16) [12] = target: GST-HPV16 E6 (HPV16) (UniProt P03126); assay: in vitro pull-down

Measured: binding

FLAG-tagged HPV16 E6 (from UniProt P03126 9-158)
binds: [1] | [2]

E6TP1α (full length E6-targeted protein 1, alpha isoform) (from UniProt O43166 1-1804)
binds: GST-HPV16 E6 (HPV16) [3]

B1: GST-E6TP1-C-378 (GST fusion protein of the C-terminal 378 residues of E6TP1) (protein)
chain: SSRHSASPVVFTSARSSPKEELHPAAPSQLAPSFSSSSSSSSGPRSFYPRQGATSKYLIGWKKPEGTINSVGFMDTRKRHQSDGNEIAHTRLRASTRDLRASPKPTSKSTIEEDLKKLIDLESPTPESQKSFKFHALSSPQSPFPSTPTSRRALHRTLSDESIYNSQREHFFTSRASLLDQALPNDVLFSSTYPSLPKSLPLRRPSYTLGMKSLHGEFSASDSSLTDIQETRRQPMPDPGLMPLPDTAADLDWSNLVDAAKAYEVQRASFFAASDENHRPLSAASNSDQLEDQALAQMKPYSSSKDSSPTLASKVDQLEGMLKMLREDLKKEKEDKAHLQAEVQHLREDNLRLQEESQNASDKLKKFTEWVFNTIDMS
binds: HPV18 E6 protein (HPV18) [4] | HPV16 E6 protein (HPV16) [5] | HPV18 E6 protein (HPV18) [6] | HPV16 E6 protein (HPV16) [7] | HPV18 E6 protein (HPV18) [8] | HPV16 E6 protein (HPV16) [9]

B2: E6TP1-C-378 (myc-tagged C-terminal 378 aa of E6TP1) (protein)
chain: SSRHSASPVVFTSARSSPKEELHPAAPSQLAPSFSSSSSSSSGPRSFYPRQGATSKYLIGWKKPEGTINSVGFMDTRKRHQSDGNEIAHTRLRASTRDLRASPKPTSKSTIEEDLKKLIDLESPTPESQKSFKFHALSSPQSPFPSTPTSRRALHRTLSDESIYNSQREHFFTSRASLLDQALPNDVLFSSTYPSLPKSLPLRRPSYTLGMKSLHGEFSASDSSLTDIQETRRQPMPDPGLMPLPDTAADLDWSNLVDAAKAYEVQRASFFAASDENHRPLSAASNSDQLEDQALAQMKPYSSSKDSSPTLASKVDQLEGMLKMLREDLKKEKEDKAHLQAEVQHLREDNLRLQEESQNASDKLKKFTEWVFNTIDMS
binds: GST-HPV16 E6 (HPV16) [3] | GST-HPV16 E6 (HPV16) [10]

B3: pGAD10 two-hybrid clone encoding the 194 carboxyl terminal amino acid residues of E6TP1 (other)
chain: NDVLFSSTYPSLPKSLPLRRPSYTLGMKSLHGEFSASDSSLTDIQETRRQPMPDPGLMPLPDTAADLDWSNLVDAAKAYEVQRASFFAASDENHRPLSAASNSDQLEDQALAQMKPYSSSKDSSPTLASKVDQLEGMLKMLREDLKKEKEDKAHLQAEVQHLREDNLRLQEESQNASDKLKKFTEWVFNTIDMS
notes: also called set of eleven identical strongly positive clones
binds: GST-HPV16 E6 (HPV16) [11] | GST-HPV16 E6 (HPV16) [3] | GST-HPV16 E6 (HPV16) [12] | GST-HPV16 E6 (HPV16) [10]
